The data set is described as follows: Radiolabeling with [^135La]La^3+ (radio-TLC). Conditions: for formation of stable complex with ^135La: 37 and/or 70 °C, pH 4.5.
[1] abbreviates: 3 μM ligand, 1 min, pH 4–5, room temperature.
The mark [2] stands for this setting: 3 μM ligand, 1 min, pH 4–5, room temperature, n = 6.

Some entries repeat one wording, which the source may state once for all of them.

Take `O=C(O)CN1CCCN(CC(=O)O)CCN(CC(=O)O)CCCN(CC(=O)O)CC1` [H4TETA, 1,4,8,11-tetraazacyclotetradecane-1,4,8,11-tetraacetic acid]: the “formation of stable complex with ^135La” value was “did not form stable complexes”.

Take `O=C(O)CN1CCN(CC(=O)O)CCN(CC(=O)O)CCN(CC(=O)O)CC1` [H4DOTA, 1,4,7,10-tetraazacyclododecane-1,4,7,10-tetraacetic acid]: the radiochemical purity (60 min at 70 °C, pH 4.5, n = 3) is given as 97%.

Regarding `O=C(O)CN1CCN(CC(=O)O)CCN(CC(=O)O)CC1` [H3NOTA, 2,2′,2″-(1,4,7-triazonane-1,4,7-triyl)triacetic acid], the “formation of stable complex with ^135La” value is on record as “did not form stable complexes”.

For the compound `O=C(O)CN(CCN(CC(=O)O)CC(=O)O)CC(=O)O` [EDTA^4–, ethylenediamine-N,N,N′,N′-tetraacetic acid], the “formation of stable complex with ^135La” value is “did not form stable complexes”.

For the compound `NC12CNCCNCC(N)(CNCCNC1)CNCCNC2` [DiAmSar, 3,6,10,13,16,19-hexaazabicyclo[6.6.6]icosane-1,8-diamine], the “formation of stable complex with ^135La” value is reported as “did not form stable complexes”.

For the compound `O=C(O)c1cccc(CN(Cc2cccc(C(=O)O)n2)[C@@H]2CCCC[C@H]2N(Cc2cccc(C(=O)O)n2)Cc2cccc(C(=O)O)n2)n1` [TPADAC^4–], the molar activity under setting [1] stood at 326.8 MBq/nmol. For the same compound, the radiochemical purity result under setting [2] is given as “greater than 99%”.

In the case of `O=C(O)c1cccc(CN(CCN(Cc2cccc(C(=O)O)n2)Cc2cccc(C(=O)O)n2)Cc2cccc(C(=O)O)n2)n1` [TPAEN^4–, N,N,N′N′-tetrakis[(6-carboxypyridin-2-yl)methyl]-ethylenediamine], the molar activity under setting [1] is 299.4 MBq/nmol. For the same compound, under setting [2], the radiochemical purity result is given as “greater than 99%”.

The values are drawn from article PMC12406198, “Decadentate Acyclic Chelators for Lanthanum Radiopharmaceuticals” (Journal of Medicinal Chemistry, 2025).
